In publication doi:10.1101/757856:
Results are given in words; binding and its absence hold for the method and conditions named. Some results given as binding are weak or reduced against the parent protein; the word gives no strength.

T1: Neurofibromin EF fragment (1821-2818, purified) (human) (UniProt P21359)
T1 sequence: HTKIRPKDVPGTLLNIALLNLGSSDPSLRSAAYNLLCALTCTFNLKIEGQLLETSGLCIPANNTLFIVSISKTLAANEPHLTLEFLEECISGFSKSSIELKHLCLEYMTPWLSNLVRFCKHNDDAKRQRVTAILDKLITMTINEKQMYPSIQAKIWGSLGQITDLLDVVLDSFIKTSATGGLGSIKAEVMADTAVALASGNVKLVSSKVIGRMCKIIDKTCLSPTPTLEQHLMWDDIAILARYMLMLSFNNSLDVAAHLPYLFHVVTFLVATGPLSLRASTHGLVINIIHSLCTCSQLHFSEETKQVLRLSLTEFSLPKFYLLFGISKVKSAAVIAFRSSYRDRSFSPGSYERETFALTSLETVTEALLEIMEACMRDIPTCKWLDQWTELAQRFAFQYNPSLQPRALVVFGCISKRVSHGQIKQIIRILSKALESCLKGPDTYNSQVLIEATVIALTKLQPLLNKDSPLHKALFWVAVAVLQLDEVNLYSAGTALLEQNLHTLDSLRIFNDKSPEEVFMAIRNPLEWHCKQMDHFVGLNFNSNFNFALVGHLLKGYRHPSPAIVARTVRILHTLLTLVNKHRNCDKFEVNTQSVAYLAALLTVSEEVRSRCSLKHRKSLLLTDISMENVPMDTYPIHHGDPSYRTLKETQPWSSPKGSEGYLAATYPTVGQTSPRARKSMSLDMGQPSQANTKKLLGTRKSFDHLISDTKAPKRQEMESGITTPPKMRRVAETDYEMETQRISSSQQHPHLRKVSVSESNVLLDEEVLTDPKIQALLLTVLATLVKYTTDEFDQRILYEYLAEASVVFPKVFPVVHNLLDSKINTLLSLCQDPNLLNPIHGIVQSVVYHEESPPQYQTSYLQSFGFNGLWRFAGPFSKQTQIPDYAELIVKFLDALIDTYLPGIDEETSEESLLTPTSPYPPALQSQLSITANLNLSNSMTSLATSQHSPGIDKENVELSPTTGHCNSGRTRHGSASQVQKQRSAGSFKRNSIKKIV


Columns and labels:
[1] = biological target: T1, Neurofibromin EF fragment (1821-2818, purified) (human); experiment: SEC
[2] = biological target: Neurofibromin DEF fragment (1541-2818, purified) (human) (UniProt P21359); experiment: SEC
[3] = biological target: T1, Neurofibromin EF fragment (1821-2818, purified) (human); experiment: SEC-MALS

Row | binding [1] | binding [2] | binding [3] | Binder
1 | no binding | no binding |  | Neurofibromin GAP-related domain protein 1198-1530 (domain or fragment, UniProt P21359-2 1198-1530) ETVLADRFERLVELVTMMGDQGELPIAMALANVVPCSQWDELARVLVTLFDSRHLLYQLLWNMFSKEVELADSMQTLFRGNSLASKIMTFCFKVYGATYLQKLLDPLLRIVITSSDWQHVSFEVDPTRLEPSESLEENQRNLLQMTEKFFHAIISSSSEFPPQLRSVCHCLYQVVSQRFPQNSIGAVGSAMFLRFINPAIVSPYEAGILDKKPPPRIERGLKLMSKILQSIANHVLFTKEEHMRPFNDFVKSNFDAARRFFLDIASDCPTSDAVNHSLSFISDGNVLALHRLLWNNQEKIGQYLSSNRDHKAVGRRPFDKMATLLAYLGPPEH
2 |  |  | binds weakly | Neurofibromin EF fragment (1821-2818, purified) (domain or fragment, UniProt P21359-2 1821-2818) HTKIRPKDVPGTLLNIALLNLGSSDPSLRSAAYNLLCALTCTFNLKIEGQLLETSGLCIPANNTLFIVSISKTLAANEPHLTLEFLEECISGFSKSSIELKHLCLEYMTPWLSNLVRFCKHNDDAKRQRVTAILDKLITMTINEKQMYPSIQAKIWGSLGQITDLLDVVLDSFIKTSATGGLGSIKAEVMADTAVALASGNVKLVSSKVIGRMCKIIDKTCLSPTPTLEQHLMWDDIAILARYMLMLSFNNSLDVAAHLPYLFHVVTFLVATGPLSLRASTHGLVINIIHSLCTCSQLHFSEETKQVLRLSLTEFSLPKFYLLFGISKVKSAAVIAFRSSYRDRSFSPGSYERETFALTSLETVTEALLEIMEACMRDIPTCKWLDQWTELAQRFAFQYNPSLQPRALVVFGCISKRVSHGQIKQIIRILSKALESCLKGPDTYNSQVLIEATVIALTKLQPLLNKDSPLHKALFWVAVAVLQLDEVNLYSAGTALLEQNLHTLDSLRIFNDKSPEEVFMAIRNPLEWHCKQMDHFVGLNFNSNFNFALVGHLLKGYRHPSPAIVARTVRILHTLLTLVNKHRNCDKFEVNTQSVAYLAALLTVSEEVRSRCSLKHRKSLLLTDISMENVPMDTYPIHHGDPSYRTLKETQPWSSPKGSEGYLAATYPTVGQTSPRARKSMSLDMGQPSQANTKKLLGTRKSFDHLISDTKAPKRQEMESGITTPPKMRRVAETDYEMETQRISSSQQHPHLRKVSVSESNVLLDEEVLTDPKIQALLLTVLATLVKYTTDEFDQRILYEYLAEASVVFPKVFPVVHNLLDSKINTLLSLCQDPNLLNPIHGIVQSVVYHEESPPQYQTSYLQSFGFNGLWRFAGPFSKQTQIPDYAELIVKFLDALIDTYLPGIDEETSEESLLTPTSPYPPALQSQLSITANLNLSNSMTSLATSQHSPGIDKENVELSPTTGHCNSGRTRHGSASQVQKQRSAGSFKRNSIKKIV
3 | no binding |  |  | Neurofibromin GAP-related domain protein 1203-1530 (domain or fragment, UniProt P21359-2 1203-1530) DRFERLVELVTMMGDQGELPIAMALANVVPCSQWDELARVLVTLFDSRHLLYQLLWNMFSKEVELADSMQTLFRGNSLASKIMTFCFKVYGATYLQKLLDPLLRIVITSSDWQHVSFEVDPTRLEPSESLEENQRNLLQMTEKFFHAIISSSSEFPPQLRSVCHCLYQVVSQRFPQNSIGAVGSAMFLRFINPAIVSPYEAGILDKKPPPRIERGLKLMSKILQSIANHVLFTKEEHMRPFNDFVKSNFDAARRFFLDIASDCPTSDAVNHSLSFISDGNVLALHRLLWNNQEKIGQYLSSNRDHKAVGRRPFDKMATLLAYLGPPEH
4 | no binding |  |  | Neurofibromin D domain (1541-1820) (domain or fragment, UniProt P21359-2 1541-1820) LNLTSSKFEEFMTRHQVHEKEEFKALKTLSIFYQAGTSKAGNPIFYYVARRFKTGQINGDLLIYHVLLTLKPYYAKPYEIVVDLTHTGPSNRFKTDFLSKWFVVFPGFAYDNVSAVYIYNCNSWVREYTKYHERLLTGLKGSKRLVFIDCPGKLAEHIEHEQQKLPAATLALEEDLKVFHNALKLAHKDTKVSIKVGSTAVQVTSAERTKVLGQSVFLNDIYYASEIEEICLVDENQFTLTIANQGTPLTFMHQECEAIVQSIIHIRTRWELSQPDSIPQ
5 | no binding |  |  | Neurofibromin GAP-related domain protein 1172-1530 (domain or fragment, UniProt P21359-2 1172-1530) DLQTRATFMEVLTKILQQGTEFDTLAETVLADRFERLVELVTMMGDQGELPIAMALANVVPCSQWDELARVLVTLFDSRHLLYQLLWNMFSKEVELADSMQTLFRGNSLASKIMTFCFKVYGATYLQKLLDPLLRIVITSSDWQHVSFEVDPTRLEPSESLEENQRNLLQMTEKFFHAIISSSSEFPPQLRSVCHCLYQVVSQRFPQNSIGAVGSAMFLRFINPAIVSPYEAGILDKKPPPRIERGLKLMSKILQSIANHVLFTKEEHMRPFNDFVKSNFDAARRFFLDIASDCPTSDAVNHSLSFISDGNVLALHRLLWNNQEKIGQYLSSNRDHKAVGRRPFDKMATLLAYLGPPEH
